Data on 54 sequences can be found in PMC7819943, “Rice protein-binding microarrays: a tool to detect cis-acting elements near promoter regions in rice”.

Chains of the proteins cited; added tags and fusions are not shown.
UniProt Q0JBA9, entry or part of it: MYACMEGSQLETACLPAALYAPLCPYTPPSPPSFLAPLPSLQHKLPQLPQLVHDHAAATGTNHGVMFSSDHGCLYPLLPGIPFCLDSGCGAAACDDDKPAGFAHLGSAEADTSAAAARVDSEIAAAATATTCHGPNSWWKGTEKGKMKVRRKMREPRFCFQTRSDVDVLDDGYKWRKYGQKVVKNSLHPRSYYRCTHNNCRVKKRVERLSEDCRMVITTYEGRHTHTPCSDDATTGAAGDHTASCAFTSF

This is one part of the list.

The assay concerns the target OsWRKY34 (Oryza sativa, UniProt Q0JBA9 1-250). The assay can be described thus: protein-binding microarray (RPBM); PBS, 2% BSA, 51.3 ng/ul salmon testes DNA, 50 uM zinc acetate, 200 nM TF, 25 C, 1 h; high values mean tight binding. The following applies: protein: recombinant; tags: N-terminal polyhistidine and DsRed monomer fusion (pET32a); label: CyDye5-dUTP incorporated in the synthesized complementary strand; 3' TTTTT single-stranded linker to array surface; dsDNA, one strand shown. A digest of the protocol:
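The binding signal is fluorescence intensity per feature, in arbitrary units, read on an Axon 4000B scanner. Polyhistidine- and DsRed-tagged transcription factors (N-terminal fusions) from E. coli BL21-CodonPlus were purified on Ni–NTA and applied at 200 nM for 1 h at 25 °C to a double-stranded, BSA-blocked custom Agilent array in buffer with 50 µM zinc acetate.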
Turning to “CTCTCCTCGGGTTCGACTCTCCACCGCTGTCACTCACTCTCGGAGTCACCTAGTGCAG”, the binding signal was 10000 fluorescence intensity (a.u.). To “CTTTTGGCCGTACTTTTTTCATCTGGGTCCTTTGCCGCCCCGGAGTCACCTAGTGCAG” belongs 8400 fluorescence intensity (a.u.); to “ACCGTGCTCCCGCACCCGTGGTTCCGCGCCATCTGCCTCGCGGAGTCACCTAGTGCAG”, 8070 fluorescence intensity (a.u.).

Regarding “TTCGAAAGATGCATAGATACTCCCATTTCTTTCTTTATTTCGGAGTCACCTAGTGCAG”, the binding signal was 9930 fluorescence intensity (a.u.).

On to “AGAGGGAGTGGGGTGGCATGGTGGTTAATTTTTTACCCAACGGAGTCACCTAGTGCAG”, for which the binding signal is 8440 fluorescence intensity (a.u.). With “TCCCCATTCCTCCCTCCCTTTCGATCTGTTCGTCCTCCTACGGAGTCACCTAGTGCAG”, the binding signal was 8740 fluorescence intensity (a.u.). Next, “TTTCAGGCTAGACTATTAATCCCTTGACTTTTCAAAACATCGGAGTCACCTAGTGCAG”: 8750 fluorescence intensity (a.u.); “AAAAATCATCTCTCCCAGTTGCAACTTCCAAATTTGGCCGCGGAGTCACCTAGTGCAG”: 9530 fluorescence intensity (a.u.); “CTCTCCGCCGCCGTCCCGTTTCCTCCTCCCGCACAGATTCCGGAGTCACCTAGTGCAG”: 9680 fluorescence intensity (a.u.).

Regarding “CGTGTGCTGTTCTATGCCCAATTGCAGTCCAACTCACCACCGGAGTCACCTAGTGCAG”, the binding signal is 8480 fluorescence intensity (a.u.). As for “CACTCCACTCTCCCATCACTCATCACCCGCACGAGTAAAACGGAGTCACCTAGTGCAG”, the binding signal was 11300 fluorescence intensity (a.u.).

With “GTCGATCACCTGGGTCCACACGTCAGTGTCTAATCCAGAACGGAGTCACCTAGTGCAG”, the binding signal was 8110 fluorescence intensity (a.u.).

Consider “ATAATAGGGCTTTGTTTTCGCCGTTTGTTGAGTCGTCCCTCGGAGTCACCTAGTGCAG”, for which the binding signal was 11100 fluorescence intensity (a.u.). Consider “TCATCCCAAGTTCCAGTATAAGGGTCAATCAGTTCCTCCACGGAGTCACCTAGTGCAG”, for which the binding signal is 8720 fluorescence intensity (a.u.).

In the case of “ATGTTTCCGTTGTATTCCATGTGGTCATTTCCCAACATACCGGAGTCACCTAGTGCAG”, the binding signal was 10700 fluorescence intensity (a.u.). Next, “TTTCCATGCATGTATCGCCTACCTGCCCATTTAATTTGATCGGAGTCACCTAGTGCAG”: 9100 fluorescence intensity (a.u.). With “TAATGTGTTTGGCGCTACTCTTTATCCATATCTAAATCTACGGAGTCACCTAGTGCAG”, the binding signal was 8240 fluorescence intensity (a.u.).

Take “GTTTGACTATCCTATGTAATCCAATATTCCCTCCAATGCACGGAGTCACCTAGTGCAG”: the binding signal was 8030 fluorescence intensity (a.u.). As for “GGGATTATTGGGTCCACATGAGTTATAGGATTGAGATTCTCGGAGTCACCTAGTGCAG”, the binding signal was 8990 fluorescence intensity (a.u.). To “CAAATTACTACTACCTCCGTCCCAAAATAATTGCATTTCTCGGAGTCACCTAGTGCAG” belongs 8950 fluorescence intensity (a.u.); to “GTTTGCCATCCACGATATCCGTCGATTCGCGTCACGTCAGCGGAGTCACCTAGTGCAG”, 8560 fluorescence intensity (a.u.); to “ATTTCAAAATTTTAGGACTTATGTACTGCCAGTGTAATTTCGGAGTCACCTAGTGCAG”, 9100 fluorescence intensity (a.u.). To “AAGTCGCAACACCTCGTTGATCTTGTTTTTGTTAGCGATGCGGAGTCACCTAGTGCAG” belongs 9230 fluorescence intensity (a.u.); to “GTATCATCTCATCTGCATGCCAGGACTCCTGTACAAGTTTCGGAGTCACCTAGTGCAG”, 11100 fluorescence intensity (a.u.); to “CAAACGATCCTAAACTGCCACCTAACGCTTCCTACGAACACGGAGTCACCTAGTGCAG”, 8440 fluorescence intensity (a.u.).

As for “ACAGCCATCCATTTAACTCTTATACACAAAATATATTAGTCGGAGTCACCTAGTGCAG”, the binding signal was 9150 fluorescence intensity (a.u.).

“GGTTCAGAAGGCTAAGGCATTGTTTAGTTCCTAACTTTTTCGGAGTCACCTAGTGCAG”: the binding signal was 9840 fluorescence intensity (a.u.).

Consider “TCTCTTGTCGCCACCAAAAAGCTGACCGCCTGCTTCTACACGGAGTCACCTAGTGCAG”, for which the binding signal is 8440 fluorescence intensity (a.u.). For “CCATACTACAACCTTCTCATTTTTCTATTATCACGTTTTCCGGAGTCACCTAGTGCAG”, the binding signal was 12000 fluorescence intensity (a.u.). “TAGGGGCTCTCTCCTCTCATTGACTGATTTGACCTGAATTCGGAGTCACCTAGTGCAG”: the binding signal is 9710 fluorescence intensity (a.u.).

With “TCCACTCCACTCCACCCCGCGATCTCCTCTCCTCTCGTCTCGGAGTCACCTAGTGCAG”, the binding signal is 11600 fluorescence intensity (a.u.). Take “GTAGTTTTGTGAAATTTACTTTTTTTTTTTTTTTTGATAACGGAGTCACCTAGTGCAG”: the binding signal was 9770 fluorescence intensity (a.u.). Turning to “TGTTTTGGTGGGTTGGTTTTTGGCCTTGGCTTGCATCTCACGGAGTCACCTAGTGCAG”, the binding signal is 10800 fluorescence intensity (a.u.).

With “TTTAGATTAGACTAGGTTATTTTTTATTTTCATAATCTTACGGAGTCACCTAGTGCAG”, the binding signal was 10500 fluorescence intensity (a.u.). “CGTCAATTAGTCGCAATATGTCCAATTAATTATTTTTTTACGGAGTCACCTAGTGCAG”: the binding signal was 8730 fluorescence intensity (a.u.). Take “CTAACGAACGAAACCCAAGCATCTAGCATCTCTGCCTACACGGAGTCACCTAGTGCAG”: the binding signal is 8300 fluorescence intensity (a.u.). To “CCAACATTGACCAGTCGGCACTCACACCACTATATCCCTTCGGAGTCACCTAGTGCAG” belongs 10100 fluorescence intensity (a.u.). Turning to “GGCTTCATCACAGCATCCATCGCCGCCGGCCACCACCACCCGGAGTCACCTAGTGCAG”, the binding signal was 12700 fluorescence intensity (a.u.). To “GGTCGGTAACAATTACCTTGCGAACTATCTGAAAAACTGCCGGAGTCACCTAGTGCAG” belongs 8510 fluorescence intensity (a.u.); to “TTATTTAAAGGAGGCGGGGTAGGAGGGAGAGGGAGATAGGCGGAGTCACCTAGTGCAG”, 8960 fluorescence intensity (a.u.).

In the case of “CCACCTCGCACGTGCGTCACGTGACGGGCTCCTCGGCCCACGGAGTCACCTAGTGCAG”, the binding signal was 8270 fluorescence intensity (a.u.). Regarding “CGCTAAATTTGTCTTTTTTATATCTCGATGTGTGAGTTGACGGAGTCACCTAGTGCAG”, the binding signal was 8640 fluorescence intensity (a.u.). To “CTCTCCAGCCGTTTGACCAGACCATACCTGGCCAATTTACCGGAGTCACCTAGTGCAG” belongs 9010 fluorescence intensity (a.u.). Next, “ATTGTTCATCTTTACAACATCACCCTTTTTGGATCACCACCGGAGTCACCTAGTGCAG”: 9440 fluorescence intensity (a.u.); “GCCCGTTCTCTCTCTCGCCTACGCCTTCCTCTCTTTTTCTCGGAGTCACCTAGTGCAG”: 11300 fluorescence intensity (a.u.).

Turning to “GGAAATTTTGGCAACAACACATTGATCACATTCTACCAAACGGAGTCACCTAGTGCAG”, the binding signal was 8200 fluorescence intensity (a.u.).

With “ATCTTAGATTTTCCCAGACATACCATCTGACACTTTGCAACGGAGTCACCTAGTGCAG”, the binding signal was 8630 fluorescence intensity (a.u.).

For the sequence “AGTTCTTCTATGTTTAGCATGCAAATAGCCTCGTATCATACGGAGTCACCTAGTGCAG”, the binding signal is 9900 fluorescence intensity (a.u.).

Consider “CTCTCTCCAATCTCCATCTCTCTGTCTGATTTGTAATCTTCGGAGTCACCTAGTGCAG”, for which the binding signal is 16500 fluorescence intensity (a.u.). As for “GTAGAGGAGGGGACGGGGTTGCTTTTTATAGGCACAAGGGCGGAGTCACCTAGTGCAG”, the binding signal was 8300 fluorescence intensity (a.u.). On to “ATTCCTCGGTGTTATTCTTTCTGATCTTCCTTAACCAATACGGAGTCACCTAGTGCAG”, for which the binding signal is 10400 fluorescence intensity (a.u.). Next, “CCTGCTATGGATTGGTTGGGATATTTTCATGAGATCTCTTCGGAGTCACCTAGTGCAG”: 8670 fluorescence intensity (a.u.). For “CCAATCTCATCGTTACAGGATCTATGGGTTCTTCCTTATCCGGAGTCACCTAGTGCAG”, the binding signal was 8950 fluorescence intensity (a.u.).

With “TCTGAGGGCGGGGCGACTGCTACATCTAAGGCCGGGGTGACGGAGTCACCTAGTGCAG”, the binding signal is 12500 fluorescence intensity (a.u.).
